Assay in all cases: co-IP; endogenous proteins; whole cell lysate of rat NP cells treated with 0 or 20 ng/ml IL-1β for 48h; IP with control IgG, anti-Sesn2, anti-Parkin or anti-Sqstm1 antibody, protein A agarose, 4°C; immunoblot
Assay [1] deals with Parkin (rat (endogenous in NP cells)) (UniProt Q9JK66).
Assay [2] deals with T1, Sestrin 2 (Sesn2) (rat (endogenous in NP cells)).
T1 sequence: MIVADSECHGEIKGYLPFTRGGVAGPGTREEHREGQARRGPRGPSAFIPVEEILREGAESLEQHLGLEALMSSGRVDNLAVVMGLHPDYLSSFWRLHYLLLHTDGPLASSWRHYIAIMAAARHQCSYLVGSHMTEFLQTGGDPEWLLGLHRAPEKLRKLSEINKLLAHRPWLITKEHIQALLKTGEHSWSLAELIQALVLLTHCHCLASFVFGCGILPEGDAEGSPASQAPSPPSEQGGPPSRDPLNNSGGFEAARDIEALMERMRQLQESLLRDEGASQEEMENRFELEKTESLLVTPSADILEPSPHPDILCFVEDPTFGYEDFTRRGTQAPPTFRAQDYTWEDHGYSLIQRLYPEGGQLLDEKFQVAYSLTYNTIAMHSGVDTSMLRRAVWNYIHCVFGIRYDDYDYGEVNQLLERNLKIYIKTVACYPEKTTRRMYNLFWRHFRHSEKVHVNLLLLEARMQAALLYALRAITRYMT

The chains behind the UniProt entries cited, without tags or fusion partners.
UniProt Q9JK66: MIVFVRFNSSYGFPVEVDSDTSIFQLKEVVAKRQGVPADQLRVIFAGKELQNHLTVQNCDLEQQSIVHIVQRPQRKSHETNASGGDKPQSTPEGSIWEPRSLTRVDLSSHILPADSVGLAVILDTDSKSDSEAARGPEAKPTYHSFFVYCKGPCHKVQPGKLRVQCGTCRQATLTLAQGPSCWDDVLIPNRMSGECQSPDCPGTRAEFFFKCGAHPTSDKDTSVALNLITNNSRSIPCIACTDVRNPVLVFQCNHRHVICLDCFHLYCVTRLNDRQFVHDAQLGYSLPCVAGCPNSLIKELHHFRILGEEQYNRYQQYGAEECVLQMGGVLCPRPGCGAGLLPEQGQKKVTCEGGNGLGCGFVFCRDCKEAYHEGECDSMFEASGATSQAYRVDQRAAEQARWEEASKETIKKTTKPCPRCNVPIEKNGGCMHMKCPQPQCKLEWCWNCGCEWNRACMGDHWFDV

The target in assay [3] is Sqstm1 (rat (endogenous in NP cells)) (UniProt O08623).

No constants are given. Whether binding was seen depends on the method and setting. Binding seen in cells or lysates may run through a third protein. Some results given as binding are weak or reduced against the parent protein; the word gives no strength.

As for Sqstm1 (from UniProt O08623 1-439), the binding entry in assay [1] is reported as “no binding”; in assay [2] it was “binds”.
With Parkin (from UniProt Q9JK66 1-465), the binding entry in assay [3] is “no binding”; in assay [2] it was “binds”.
